# The list shows a part of the results.
# The chains behind the UniProt entries cited, without tags or fusion partners. Where a name states a change or a piece, a line headed by the entry shows the natural chain unless it says otherwise.
# UniProt Q8NC51: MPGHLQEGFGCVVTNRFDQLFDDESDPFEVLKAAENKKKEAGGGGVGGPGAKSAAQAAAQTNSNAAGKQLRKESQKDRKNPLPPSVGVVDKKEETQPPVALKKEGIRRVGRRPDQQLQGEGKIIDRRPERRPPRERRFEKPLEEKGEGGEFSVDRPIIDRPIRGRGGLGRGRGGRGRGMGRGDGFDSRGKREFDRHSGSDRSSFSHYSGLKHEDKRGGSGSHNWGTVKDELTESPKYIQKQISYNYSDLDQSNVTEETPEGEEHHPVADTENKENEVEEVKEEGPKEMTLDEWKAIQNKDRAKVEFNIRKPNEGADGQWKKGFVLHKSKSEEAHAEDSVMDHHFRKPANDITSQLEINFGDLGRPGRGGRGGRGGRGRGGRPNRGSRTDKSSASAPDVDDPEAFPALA
# UniProt Q9BRY0: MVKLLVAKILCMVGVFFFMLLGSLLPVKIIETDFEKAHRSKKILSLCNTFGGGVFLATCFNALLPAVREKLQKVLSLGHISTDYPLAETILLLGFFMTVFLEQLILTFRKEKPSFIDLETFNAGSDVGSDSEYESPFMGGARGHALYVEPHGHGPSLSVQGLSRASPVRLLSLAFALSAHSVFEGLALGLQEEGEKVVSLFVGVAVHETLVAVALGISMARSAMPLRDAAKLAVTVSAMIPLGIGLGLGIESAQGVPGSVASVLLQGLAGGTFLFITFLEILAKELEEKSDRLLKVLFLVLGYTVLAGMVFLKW
# UniProt O60669: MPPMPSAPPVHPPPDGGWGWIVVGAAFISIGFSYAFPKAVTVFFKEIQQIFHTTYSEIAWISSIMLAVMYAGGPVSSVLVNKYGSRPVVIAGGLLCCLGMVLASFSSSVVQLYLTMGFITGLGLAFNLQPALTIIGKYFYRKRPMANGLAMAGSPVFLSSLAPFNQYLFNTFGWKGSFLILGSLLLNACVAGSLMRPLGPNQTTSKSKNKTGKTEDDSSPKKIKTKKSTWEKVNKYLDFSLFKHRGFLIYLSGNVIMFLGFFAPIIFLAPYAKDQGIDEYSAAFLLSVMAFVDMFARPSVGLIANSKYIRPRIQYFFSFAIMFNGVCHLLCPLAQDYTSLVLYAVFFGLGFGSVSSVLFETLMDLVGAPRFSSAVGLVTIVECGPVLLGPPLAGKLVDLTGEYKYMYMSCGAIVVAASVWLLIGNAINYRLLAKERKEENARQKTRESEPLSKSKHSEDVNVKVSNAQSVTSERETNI
# UniProt Q8WUM9: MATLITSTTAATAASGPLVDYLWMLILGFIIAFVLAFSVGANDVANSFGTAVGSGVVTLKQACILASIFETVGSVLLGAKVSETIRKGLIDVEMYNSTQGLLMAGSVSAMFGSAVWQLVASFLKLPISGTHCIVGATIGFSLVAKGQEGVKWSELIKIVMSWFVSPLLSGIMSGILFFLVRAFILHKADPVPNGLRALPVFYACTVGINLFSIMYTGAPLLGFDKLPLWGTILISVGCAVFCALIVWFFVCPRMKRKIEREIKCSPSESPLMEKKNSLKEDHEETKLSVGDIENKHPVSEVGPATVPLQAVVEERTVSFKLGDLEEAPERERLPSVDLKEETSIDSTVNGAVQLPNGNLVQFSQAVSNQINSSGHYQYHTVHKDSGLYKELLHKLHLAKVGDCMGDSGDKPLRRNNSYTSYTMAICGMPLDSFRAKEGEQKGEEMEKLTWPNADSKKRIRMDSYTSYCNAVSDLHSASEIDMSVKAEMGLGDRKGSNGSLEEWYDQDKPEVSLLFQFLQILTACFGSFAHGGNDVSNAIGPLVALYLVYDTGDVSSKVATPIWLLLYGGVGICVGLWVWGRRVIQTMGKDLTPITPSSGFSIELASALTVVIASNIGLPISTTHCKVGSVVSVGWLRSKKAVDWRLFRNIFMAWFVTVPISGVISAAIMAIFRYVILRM
# UniProt Q9H936: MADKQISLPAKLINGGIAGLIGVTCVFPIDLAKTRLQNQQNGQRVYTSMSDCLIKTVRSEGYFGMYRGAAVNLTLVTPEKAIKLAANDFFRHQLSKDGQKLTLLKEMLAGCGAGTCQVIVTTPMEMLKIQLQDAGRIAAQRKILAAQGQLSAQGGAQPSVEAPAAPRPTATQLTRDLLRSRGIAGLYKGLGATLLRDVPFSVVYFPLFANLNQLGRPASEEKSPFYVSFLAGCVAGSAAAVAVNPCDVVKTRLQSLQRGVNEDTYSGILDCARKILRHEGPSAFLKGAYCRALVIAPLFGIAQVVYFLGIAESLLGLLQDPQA
# UniProt Q15437: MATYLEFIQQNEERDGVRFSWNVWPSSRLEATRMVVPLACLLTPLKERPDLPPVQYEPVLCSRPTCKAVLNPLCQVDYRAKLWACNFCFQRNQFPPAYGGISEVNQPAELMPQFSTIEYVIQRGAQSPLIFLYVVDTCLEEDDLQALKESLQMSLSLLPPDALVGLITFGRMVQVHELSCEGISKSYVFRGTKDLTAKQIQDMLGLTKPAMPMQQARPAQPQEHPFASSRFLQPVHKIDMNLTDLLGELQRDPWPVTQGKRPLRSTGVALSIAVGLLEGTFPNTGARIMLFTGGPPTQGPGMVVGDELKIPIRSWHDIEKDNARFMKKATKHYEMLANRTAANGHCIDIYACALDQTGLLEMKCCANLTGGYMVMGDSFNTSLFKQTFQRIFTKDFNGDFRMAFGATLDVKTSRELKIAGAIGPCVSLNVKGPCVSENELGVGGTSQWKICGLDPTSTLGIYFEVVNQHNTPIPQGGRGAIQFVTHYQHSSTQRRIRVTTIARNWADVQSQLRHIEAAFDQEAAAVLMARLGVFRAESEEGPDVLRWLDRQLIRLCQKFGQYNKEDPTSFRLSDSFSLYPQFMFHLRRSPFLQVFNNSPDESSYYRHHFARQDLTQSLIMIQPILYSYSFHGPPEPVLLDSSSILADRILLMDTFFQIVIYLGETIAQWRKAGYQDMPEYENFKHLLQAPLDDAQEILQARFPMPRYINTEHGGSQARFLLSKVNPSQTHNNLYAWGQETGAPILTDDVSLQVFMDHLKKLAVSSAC
# UniProt O60524: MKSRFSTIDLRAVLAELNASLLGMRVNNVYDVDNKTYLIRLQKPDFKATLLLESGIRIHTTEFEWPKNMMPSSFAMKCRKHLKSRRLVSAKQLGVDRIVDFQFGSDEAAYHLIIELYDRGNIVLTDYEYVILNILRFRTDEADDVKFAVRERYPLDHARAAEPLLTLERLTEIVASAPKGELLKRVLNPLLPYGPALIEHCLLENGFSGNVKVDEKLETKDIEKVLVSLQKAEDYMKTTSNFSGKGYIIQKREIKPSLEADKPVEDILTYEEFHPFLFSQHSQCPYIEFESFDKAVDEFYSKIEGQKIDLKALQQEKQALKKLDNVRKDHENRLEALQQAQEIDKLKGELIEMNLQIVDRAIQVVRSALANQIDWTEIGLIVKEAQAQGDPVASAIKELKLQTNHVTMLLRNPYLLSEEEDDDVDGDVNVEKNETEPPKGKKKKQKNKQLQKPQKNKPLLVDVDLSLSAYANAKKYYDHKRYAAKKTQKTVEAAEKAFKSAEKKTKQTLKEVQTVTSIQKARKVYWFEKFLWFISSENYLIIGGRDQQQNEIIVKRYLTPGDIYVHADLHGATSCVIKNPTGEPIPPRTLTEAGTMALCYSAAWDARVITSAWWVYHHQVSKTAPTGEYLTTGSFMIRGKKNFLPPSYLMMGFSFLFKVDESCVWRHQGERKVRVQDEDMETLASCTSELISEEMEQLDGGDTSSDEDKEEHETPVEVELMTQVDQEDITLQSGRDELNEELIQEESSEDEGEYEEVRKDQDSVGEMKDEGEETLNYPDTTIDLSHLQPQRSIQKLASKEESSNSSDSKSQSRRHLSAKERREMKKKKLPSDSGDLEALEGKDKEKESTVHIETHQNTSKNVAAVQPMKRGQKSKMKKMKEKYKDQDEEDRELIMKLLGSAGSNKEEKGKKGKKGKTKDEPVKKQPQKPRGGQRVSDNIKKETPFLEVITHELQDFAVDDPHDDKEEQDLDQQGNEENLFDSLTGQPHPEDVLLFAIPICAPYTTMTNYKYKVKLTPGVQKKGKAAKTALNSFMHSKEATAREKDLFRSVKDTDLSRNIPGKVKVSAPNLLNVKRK
# UniProt Q9NVA2: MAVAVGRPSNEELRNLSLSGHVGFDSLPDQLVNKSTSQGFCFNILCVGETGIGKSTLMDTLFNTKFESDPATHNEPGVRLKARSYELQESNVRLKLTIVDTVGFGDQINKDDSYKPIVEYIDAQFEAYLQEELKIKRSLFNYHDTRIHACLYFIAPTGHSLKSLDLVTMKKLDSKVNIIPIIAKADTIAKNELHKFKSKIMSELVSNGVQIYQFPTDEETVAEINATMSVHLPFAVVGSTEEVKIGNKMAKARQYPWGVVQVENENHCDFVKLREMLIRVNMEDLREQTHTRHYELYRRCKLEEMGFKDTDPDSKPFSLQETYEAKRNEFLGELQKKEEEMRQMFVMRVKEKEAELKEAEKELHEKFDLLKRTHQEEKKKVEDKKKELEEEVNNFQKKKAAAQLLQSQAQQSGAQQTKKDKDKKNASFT
# UniProt Q96NB2: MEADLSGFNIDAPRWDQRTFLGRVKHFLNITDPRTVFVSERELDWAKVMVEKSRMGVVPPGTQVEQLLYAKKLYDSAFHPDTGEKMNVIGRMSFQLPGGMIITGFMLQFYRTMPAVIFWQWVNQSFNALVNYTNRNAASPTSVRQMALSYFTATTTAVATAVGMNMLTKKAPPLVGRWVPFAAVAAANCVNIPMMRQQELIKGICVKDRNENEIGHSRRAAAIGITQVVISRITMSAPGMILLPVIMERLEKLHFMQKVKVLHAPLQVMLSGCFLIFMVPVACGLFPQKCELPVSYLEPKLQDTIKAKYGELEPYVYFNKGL
# UniProt Q9NRG7: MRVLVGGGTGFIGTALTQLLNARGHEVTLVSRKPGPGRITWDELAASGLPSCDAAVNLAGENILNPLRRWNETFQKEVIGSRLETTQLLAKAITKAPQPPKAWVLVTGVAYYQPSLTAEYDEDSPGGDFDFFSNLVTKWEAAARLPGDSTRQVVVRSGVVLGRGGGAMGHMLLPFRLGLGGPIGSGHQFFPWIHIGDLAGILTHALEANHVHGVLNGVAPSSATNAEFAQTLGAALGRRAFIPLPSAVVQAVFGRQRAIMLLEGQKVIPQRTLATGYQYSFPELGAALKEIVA
# UniProt Q99470: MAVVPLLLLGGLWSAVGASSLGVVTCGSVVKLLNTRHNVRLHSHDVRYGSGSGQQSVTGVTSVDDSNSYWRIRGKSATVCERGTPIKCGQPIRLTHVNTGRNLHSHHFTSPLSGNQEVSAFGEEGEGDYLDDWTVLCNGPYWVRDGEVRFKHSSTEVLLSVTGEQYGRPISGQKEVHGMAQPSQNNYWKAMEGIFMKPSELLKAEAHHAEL
# UniProt P63208, whole entry: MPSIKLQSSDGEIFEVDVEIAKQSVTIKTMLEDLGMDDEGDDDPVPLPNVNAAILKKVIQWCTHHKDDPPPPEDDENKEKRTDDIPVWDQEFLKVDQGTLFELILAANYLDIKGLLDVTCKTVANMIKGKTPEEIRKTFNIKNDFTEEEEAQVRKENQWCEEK
# UniProt O15126: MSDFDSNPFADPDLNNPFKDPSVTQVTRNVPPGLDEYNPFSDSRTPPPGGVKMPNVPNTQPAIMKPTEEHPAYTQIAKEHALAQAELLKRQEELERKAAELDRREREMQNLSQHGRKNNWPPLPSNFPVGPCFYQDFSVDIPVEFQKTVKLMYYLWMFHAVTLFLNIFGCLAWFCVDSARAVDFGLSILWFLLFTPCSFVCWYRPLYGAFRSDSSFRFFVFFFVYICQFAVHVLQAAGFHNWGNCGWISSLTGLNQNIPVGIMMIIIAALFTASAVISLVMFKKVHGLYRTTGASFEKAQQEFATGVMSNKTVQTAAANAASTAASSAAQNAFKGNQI
# UniProt P50443: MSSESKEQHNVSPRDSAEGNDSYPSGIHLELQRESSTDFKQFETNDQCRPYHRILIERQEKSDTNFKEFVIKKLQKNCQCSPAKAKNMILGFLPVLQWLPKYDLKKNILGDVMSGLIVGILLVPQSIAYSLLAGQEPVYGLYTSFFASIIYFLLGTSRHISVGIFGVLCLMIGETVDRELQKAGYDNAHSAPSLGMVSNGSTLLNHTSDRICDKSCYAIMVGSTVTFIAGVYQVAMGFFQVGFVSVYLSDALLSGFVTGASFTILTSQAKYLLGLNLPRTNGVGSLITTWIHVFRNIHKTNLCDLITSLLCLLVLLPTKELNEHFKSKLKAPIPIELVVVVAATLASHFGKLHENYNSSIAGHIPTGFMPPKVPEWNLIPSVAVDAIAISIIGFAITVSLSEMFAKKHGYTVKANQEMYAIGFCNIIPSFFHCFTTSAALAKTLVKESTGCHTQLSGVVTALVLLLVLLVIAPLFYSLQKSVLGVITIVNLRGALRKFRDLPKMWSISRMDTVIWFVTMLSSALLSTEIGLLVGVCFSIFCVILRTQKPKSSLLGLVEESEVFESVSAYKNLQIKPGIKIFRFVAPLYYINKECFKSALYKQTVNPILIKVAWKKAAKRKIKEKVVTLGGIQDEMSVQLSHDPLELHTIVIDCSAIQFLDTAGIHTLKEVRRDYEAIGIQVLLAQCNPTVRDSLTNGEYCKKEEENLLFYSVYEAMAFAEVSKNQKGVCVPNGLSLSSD
# Compound: COc1ccc(Cn2ccc3ccc(C(=O)NO)cc32)cc1
# Test: dose-dependent thermal stabilisation call (2D-TPP, DLPTP, 10% FDR) (binary (1 = stabilised)); higher = stabilised by the compound
# Conditions: system: HL-60 intact cells; concentration range 0.04-10 µM
row,Target,dose-dependent thermal stabilisation call
1,SERBP1 (UniProt Q8NC51),inactive: 0
2,SLC39A3 (UniProt Q9BRY0),inactive: 0
3,SERAC1 (UniProt Q96JX3),inactive: 0
4,SCAMP4 (UniProt Q969E2),inactive: 0
5,SLC5A3 (UniProt P53794),inactive: 0
6,SLC5A6 (UniProt Q9Y289),inactive: 0
7,SEC61B (UniProt P60468),inactive: 0
8,SLC25A1 (UniProt P53007),active: 1
9,SDCCAG8 (UniProt Q86SQ7),inactive: 0
10,SLC38A7 (UniProt Q9NVC3),inactive: 0
11,SLC16A7 (UniProt O60669),inactive: 0
12,SLC20A1 (UniProt Q8WUM9),inactive: 0
13,SELI (UniProt Q9C0D9),inactive: 0
14,SLC25A22 (UniProt Q9H936),inactive: 0
15,SLC25A10 (UniProt Q9UBX3),inactive: 0
16,SEC23B (UniProt Q15437),inactive: 0
17,SDCCAG1 (UniProt O60524),inactive: 0
18,SCYL1BP1 (UniProt Q5T7V8),inactive: 0
19,SKIV2L (UniProt Q15477),inactive: 0

# An excerpt of these results, with bars between the fields.
row | Target | dose-dependent thermal stabilisation call
5 | SLC5A3 (UniProt P53794) | inactive: 0
12 | SLC20A1 (UniProt Q8WUM9) | inactive: 0
17 | SDCCAG1 (UniProt O60524) | inactive: 0

# More entries follow.

row,Target,dose-dependent thermal stabilisation call
1,SLAIN1 (UniProt Q8ND83),inactive: 0
2,SDCCAG10 (UniProt Q6UX04),inactive: 0
3,SLC33A1 (UniProt O00400),inactive: 0
4,SLC30A6 (UniProt Q6NXT4),inactive: 0
5,SEPT11 (UniProt Q9NVA2),inactive: 0
6,SFRS16 (UniProt Q8N2M8),inactive: 0
7,SF3B14 (UniProt Q9Y3B4),inactive: 0
8,SLC38A5 (UniProt Q8WUX1),inactive: 0
9,SFXN2 (UniProt Q96NB2),inactive: 0
10,SEC23IP (UniProt Q9Y6Y8),inactive: 0
11,SDR39U1 (UniProt Q9NRG7),inactive: 0
12,SDF2 (UniProt Q99470),inactive: 0
13,SKP1 (UniProt P63208),inactive: 0
14,SIRT3 (UniProt Q9NTG7),inactive: 0
15,SEPT9 (UniProt Q9UHD8),inactive: 0
16,SCAMP1 (UniProt O15126),inactive: 0
17,SLC26A2 (UniProt P50443),inactive: 0
18,SDF4 (UniProt Q9BRK5),inactive: 0
